At least one structure is not confirmed: it was looked up by name or label, or the drawing left a doubt.
Experiment: Particle size of atovaquone particles, light scattering (Malvern Mastersizer)
Type: physicochemical
Conditions: milled atovaquone particles before formulation
Excerpt: Conventionally known particle size analysis methods can be used suitably for determining the particle size. For example, particle size measurement can be done using light-scattering methods and turbidimetric methods, sedimentation methods, such as pipette analysis technique using an Andreassen pipette, sedimentation scales, photosedimentometers and sedimentation in a centrifugal force field, pulse methods, for example using a Coulter counter, or sorting by means of gravitational or centrifugal force.
The term “d9o value” means at least 90% of atovaquone particles have volume diameter less than specified value when measured by a light scattering method, for example, Malvern Mastersizer.
Atovaquone was air jet milled using at inlet feeder air pressure of 6 kg/cm2 and inlet miller air pressure of 8 kg/cm2 at the rate of 100 g/hour. After one cycle the contents were again milled through air jet mill for second cycle to obtain the desired particle size.

Work on `O=C1C(O)=C([C@H]2CC[C@H](c3ccc(Cl)cc3)CC2)C(=O)c2ccccc21` [Example 1, Atovaquone] yielded a d90 particle size of 7.66 μm.
